Measured values reported in patent US20260139017A1, “COMPOSITIONS AND METHODS USING REELIN IN ALZHEIMER'S DISEASE” (The General Hospital Corporation, priority 2022, published 2026).
No constants are given. Whether binding was seen depends on the method and setting. Some results given as binding are weak or reduced against the parent protein; the word gives no strength.

Chains of the proteins cited; added tags and fusions are not shown. Residues count along the entry.
UniProt Q14114, residues 33-963: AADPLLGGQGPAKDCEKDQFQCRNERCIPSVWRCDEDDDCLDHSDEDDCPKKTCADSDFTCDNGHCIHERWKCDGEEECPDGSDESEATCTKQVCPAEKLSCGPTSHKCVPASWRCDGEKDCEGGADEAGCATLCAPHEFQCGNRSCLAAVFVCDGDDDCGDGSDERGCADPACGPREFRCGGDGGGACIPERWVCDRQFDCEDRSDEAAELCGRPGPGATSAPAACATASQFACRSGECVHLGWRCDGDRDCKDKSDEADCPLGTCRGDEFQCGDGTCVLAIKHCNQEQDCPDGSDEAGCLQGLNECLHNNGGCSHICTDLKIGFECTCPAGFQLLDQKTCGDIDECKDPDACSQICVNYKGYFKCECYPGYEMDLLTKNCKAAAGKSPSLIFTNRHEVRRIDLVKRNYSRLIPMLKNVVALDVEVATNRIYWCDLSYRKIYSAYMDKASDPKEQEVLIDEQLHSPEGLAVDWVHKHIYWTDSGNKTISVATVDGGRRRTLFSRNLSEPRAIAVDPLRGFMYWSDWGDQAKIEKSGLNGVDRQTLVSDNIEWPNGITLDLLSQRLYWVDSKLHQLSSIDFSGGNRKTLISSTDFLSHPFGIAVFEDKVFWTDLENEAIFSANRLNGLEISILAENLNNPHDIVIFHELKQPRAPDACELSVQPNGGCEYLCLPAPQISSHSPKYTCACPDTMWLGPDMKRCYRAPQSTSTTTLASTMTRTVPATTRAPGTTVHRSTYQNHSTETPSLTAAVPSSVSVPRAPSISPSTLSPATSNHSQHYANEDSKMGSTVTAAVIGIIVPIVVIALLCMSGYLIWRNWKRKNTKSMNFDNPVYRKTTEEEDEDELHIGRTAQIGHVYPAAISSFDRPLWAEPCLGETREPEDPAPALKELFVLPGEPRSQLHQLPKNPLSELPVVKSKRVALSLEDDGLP
UniProt Q60841, residues 27-3461: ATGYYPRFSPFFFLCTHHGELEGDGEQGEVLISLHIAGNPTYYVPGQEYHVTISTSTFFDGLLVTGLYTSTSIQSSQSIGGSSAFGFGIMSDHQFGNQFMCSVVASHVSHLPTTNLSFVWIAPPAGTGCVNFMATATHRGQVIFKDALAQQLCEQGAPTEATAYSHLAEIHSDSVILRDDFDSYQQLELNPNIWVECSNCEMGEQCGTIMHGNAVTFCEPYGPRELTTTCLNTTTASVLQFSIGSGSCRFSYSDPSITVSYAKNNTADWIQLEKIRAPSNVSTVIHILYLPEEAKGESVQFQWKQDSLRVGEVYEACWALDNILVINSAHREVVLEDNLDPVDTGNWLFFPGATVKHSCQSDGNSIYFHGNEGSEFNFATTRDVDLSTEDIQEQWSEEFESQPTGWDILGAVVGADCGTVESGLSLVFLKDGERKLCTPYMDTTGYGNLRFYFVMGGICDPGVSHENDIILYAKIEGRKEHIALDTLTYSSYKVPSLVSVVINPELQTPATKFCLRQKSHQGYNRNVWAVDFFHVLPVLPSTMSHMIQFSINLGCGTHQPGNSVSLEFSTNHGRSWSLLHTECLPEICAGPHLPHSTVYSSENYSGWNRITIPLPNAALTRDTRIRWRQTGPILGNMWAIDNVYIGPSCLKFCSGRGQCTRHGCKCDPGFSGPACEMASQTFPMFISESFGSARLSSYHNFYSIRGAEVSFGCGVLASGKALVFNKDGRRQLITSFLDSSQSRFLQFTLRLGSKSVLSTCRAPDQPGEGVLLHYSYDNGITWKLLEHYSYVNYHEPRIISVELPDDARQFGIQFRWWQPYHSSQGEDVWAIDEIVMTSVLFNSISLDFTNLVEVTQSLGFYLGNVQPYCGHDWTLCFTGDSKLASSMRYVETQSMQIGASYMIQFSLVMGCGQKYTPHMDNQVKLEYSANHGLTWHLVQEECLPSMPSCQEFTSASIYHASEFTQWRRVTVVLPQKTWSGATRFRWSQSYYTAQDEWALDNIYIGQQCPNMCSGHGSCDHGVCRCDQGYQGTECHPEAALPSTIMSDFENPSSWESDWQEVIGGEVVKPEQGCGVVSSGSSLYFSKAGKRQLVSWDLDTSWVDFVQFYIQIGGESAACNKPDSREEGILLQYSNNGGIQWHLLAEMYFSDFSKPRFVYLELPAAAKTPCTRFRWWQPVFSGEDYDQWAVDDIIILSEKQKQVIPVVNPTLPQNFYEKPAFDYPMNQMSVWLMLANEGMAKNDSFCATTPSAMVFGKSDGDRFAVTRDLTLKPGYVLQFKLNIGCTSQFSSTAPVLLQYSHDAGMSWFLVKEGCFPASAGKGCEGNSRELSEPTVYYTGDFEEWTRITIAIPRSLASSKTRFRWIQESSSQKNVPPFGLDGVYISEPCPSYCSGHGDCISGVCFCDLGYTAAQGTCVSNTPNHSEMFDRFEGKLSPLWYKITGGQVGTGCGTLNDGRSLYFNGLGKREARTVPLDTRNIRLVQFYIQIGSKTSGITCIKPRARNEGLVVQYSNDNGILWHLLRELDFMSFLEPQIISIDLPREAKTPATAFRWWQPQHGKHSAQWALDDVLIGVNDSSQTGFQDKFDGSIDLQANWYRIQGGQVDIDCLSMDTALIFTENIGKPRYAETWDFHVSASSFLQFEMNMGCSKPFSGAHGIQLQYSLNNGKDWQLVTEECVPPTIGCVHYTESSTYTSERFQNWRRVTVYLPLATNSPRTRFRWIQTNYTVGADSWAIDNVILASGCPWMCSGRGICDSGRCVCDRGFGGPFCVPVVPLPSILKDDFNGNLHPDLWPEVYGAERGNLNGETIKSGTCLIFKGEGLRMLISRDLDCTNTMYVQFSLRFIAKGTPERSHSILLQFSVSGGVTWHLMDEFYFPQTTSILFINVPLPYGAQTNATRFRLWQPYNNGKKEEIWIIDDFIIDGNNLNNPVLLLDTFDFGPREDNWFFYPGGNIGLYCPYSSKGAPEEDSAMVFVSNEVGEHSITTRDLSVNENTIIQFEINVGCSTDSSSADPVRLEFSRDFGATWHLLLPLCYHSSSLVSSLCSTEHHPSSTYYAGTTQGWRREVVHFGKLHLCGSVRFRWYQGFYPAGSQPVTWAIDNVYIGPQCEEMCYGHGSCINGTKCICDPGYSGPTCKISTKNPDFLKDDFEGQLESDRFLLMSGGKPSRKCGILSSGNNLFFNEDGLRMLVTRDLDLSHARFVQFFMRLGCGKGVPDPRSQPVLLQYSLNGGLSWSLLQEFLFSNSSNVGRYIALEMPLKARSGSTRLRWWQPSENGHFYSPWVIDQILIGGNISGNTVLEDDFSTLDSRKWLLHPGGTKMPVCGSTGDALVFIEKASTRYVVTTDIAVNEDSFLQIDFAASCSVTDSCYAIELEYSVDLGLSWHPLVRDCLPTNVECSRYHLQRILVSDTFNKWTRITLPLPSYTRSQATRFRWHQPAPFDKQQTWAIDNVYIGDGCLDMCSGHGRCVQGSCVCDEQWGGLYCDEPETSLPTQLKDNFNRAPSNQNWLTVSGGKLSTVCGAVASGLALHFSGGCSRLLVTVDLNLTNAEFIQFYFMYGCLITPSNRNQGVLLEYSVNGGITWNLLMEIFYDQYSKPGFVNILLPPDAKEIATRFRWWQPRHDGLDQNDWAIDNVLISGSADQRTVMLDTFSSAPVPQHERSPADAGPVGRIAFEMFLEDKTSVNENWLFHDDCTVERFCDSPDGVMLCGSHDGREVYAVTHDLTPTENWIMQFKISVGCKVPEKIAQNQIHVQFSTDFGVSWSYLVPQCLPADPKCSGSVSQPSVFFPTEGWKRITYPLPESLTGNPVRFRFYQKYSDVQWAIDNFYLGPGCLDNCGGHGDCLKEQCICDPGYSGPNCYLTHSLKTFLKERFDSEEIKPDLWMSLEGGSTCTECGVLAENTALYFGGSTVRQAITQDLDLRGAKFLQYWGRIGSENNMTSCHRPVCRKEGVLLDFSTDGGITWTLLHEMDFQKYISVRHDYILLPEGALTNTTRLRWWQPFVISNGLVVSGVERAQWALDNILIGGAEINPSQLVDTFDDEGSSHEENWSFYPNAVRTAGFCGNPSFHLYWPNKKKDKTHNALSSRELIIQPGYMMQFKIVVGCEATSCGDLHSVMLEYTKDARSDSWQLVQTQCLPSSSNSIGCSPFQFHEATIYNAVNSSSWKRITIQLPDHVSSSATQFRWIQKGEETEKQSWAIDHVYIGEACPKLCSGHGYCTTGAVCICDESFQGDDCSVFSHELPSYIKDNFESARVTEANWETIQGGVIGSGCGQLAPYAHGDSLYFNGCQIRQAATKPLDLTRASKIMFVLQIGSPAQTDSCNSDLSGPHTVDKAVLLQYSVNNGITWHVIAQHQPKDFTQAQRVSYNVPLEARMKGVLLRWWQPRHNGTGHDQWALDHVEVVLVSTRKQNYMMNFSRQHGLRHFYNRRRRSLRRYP

How the values were obtained:
[1] = target: ApoEr2 (TP320903, OnGene) (UniProt Q14114); test: ELISA on coated receptor
VLDLr (8444-VL, R&D) = VLDLr (8444-VL, R&D) (UniProt P98155); test: ELISA on coated receptor

Substance: full-length murine recombinant RELN WT (from UniProt Q60841 27-3461) (ligand)
- binding [1]: binds
- binding (VLDLr (8444-VL, R&D)): binds
